Measured values reported in PubChem BioAssay AID493014 (National Center for Advancing Translational Sciences (NCATS), 2011).
The list shows a part of the results. Shown are side measurements of this screen, not its main read-out; they come without a call. Compounds called inactive in the main read-out are mostly missing here. The note in brackets gives the kind of curve behind each potency; many fits are weak.

Assay: qHTS Assay to Find Inhibitors of Chronic Active B-Cell Receptor Signaling
Details: ABC-DLBCL IkBa-CBG/CBR reporter, luminescence ratio (green luciferase fused to IkBa over red control in TMD8 lymphoma cells), 4 h
Outline: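 Compounds up to 46 uM were incubated four hours with TMD8 cells whose green CBG68 luciferase is fused to IkappaBalpha; red CBR luminescence normalised the signal, and concentration-effect curves were fitted to fusion, red and ratio data.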

[1] = measured here: CBR red luminescence, cell number
[2] = measured here: IkBa-CBG green luminescence

| SMILES | AC50 [1] | AC50 [2] |
| --- | --- | --- |
| O=[N+]([O-])c1ccc(CN2CC=C(c3ccccc3)CC2)cc1 | 10 µM [falling, partial curve] | – |
| CC1CN(C(=O)c2ccc(COc3ccc4ccccc4c3)o2)CC(C)O1 (stereo unspecified) | 15.8 µM [falling, partial curve] | – |
| COc1ccc(OC)c(-c2cc(C3CCN(c4ncccc4[N+](=O)[O-])CC3)[nH]n2)c1 | 11.2 µM [falling, partial curve, poor fit] | – |
| CN1C(=O)C(=Cc2sc(=O)n(-c3ccccc3)c2N2CCCCC2)C(=O)N(C)C1=O | 7.94 µM [falling, partial curve] | – |
| Cc1cc(/C=C2/C(=O)NC(=O)N(Cc3ccco3)C2=O)c(C)n1-c1ccccc1O | 0.708 µM [falling, full curve, poor fit] | – |
| CCOc1ccc(N(CC(=O)Nc2cccc(Cl)c2)S(=O)(=O)c2c(C)noc2C)cc1 | 35.5 µM [falling, single point] | – |
| O=C(COc1ccc(Cl)cc1)N(c1ccc(Cl)cc1)C1CN2CCC1CC2 (stereo unspecified) | 12.6 µM [falling, partial curve] | – |
| CC(C)(C)NC(=O)COC(=O)CCC(=O)c1ccc(F)cc1 | 20 µM [rising, partial curve, poor fit] | – |
| Cc1nc2ccccc2c(=O)n1-c1ccc([N+](=O)[O-])cc1 | 20 µM [rising, partial curve, poor fit] | – |
| CCN1C(=O)/C(=C\c2ccc([N+](=O)[O-])s2)C(=O)NC1=S | 5.62 µM [falling, single point] | – |
| COc1ccc(-c2cc(=O)c3c(OC)c(OC)c(OC)cc3o2)cc1 | 5.62 µM [falling, partial curve] | 22.4 µM [rising, partial curve, poor fit] |
| Oc1ccc2c3c1O[C@H]1c4[nH]c5ccccc5c4C[C@@]4(O)[C@@H](C2)N(CC2CC2)CC[C@]314 | 18.4 µM [falling, partial curve, poor fit] | – |
| COc1ccc(C(=O)c2nc3ccccc3n2C(C)C)cc1OC | 20 µM [rising, single point] | – |
| O=C(Nc1ccccc1)c1cc([N+](=O)[O-])ccc1N1CCNCC1 | 11.2 µM [rising, partial curve] | – |
| O=C(Nc1ccc2c(c1)OCO2)c1cccn(Cc2ccc(F)cc2)c1=O | 0.398 µM [falling, full curve, poor fit] | – |
| Cc1ccc(C2=NCC(=O)Nc3ccc(Br)cc32)cc1 | 17.8 µM [rising, partial curve, poor fit] | 12.6 µM [falling, partial curve, poor fit] |
| CN1CC(C(=O)c2ccc(Cl)cc2)C(c2ccc(N(C)C)cc2)C1 (stereo unspecified) | 35.5 µM [falling, single point] | – |
| COc1ccc(NC(=O)c2cc([N+](=O)[O-])ccc2N2CCNCC2)cc1 | 10 µM [falling, partial curve, poor fit] | – |
| OC(c1ccccc1)(c1ccc(Cl)cc1)C1CN2CCC1CC2 (stereo unspecified) | 22.4 µM [falling, single point] | – |
| COc1cccc(/C=C2\SC(=S)N(CCC(=O)NCCc3ccc(O)cc3)C2=O)c1 | 11.2 µM [falling, partial curve, poor fit] | – |
| O=C1CC(=O)N(c2ccccc2)C(=O)N1c1ccccc1 | 20 µM [falling, single point] | – |

| SMILES | AC50 [1] | AC50 [2] |
| --- | --- | --- |
| C/C(=N\NC(=O)c1ccccc1O)c1c(O)n(Cc2ccccc2)c(=O)[nH]c1=O | 10 µM [falling, partial curve] | – |
| N=C1c2ccccc2CN1NC(=O)c1ccccc1 | 20.6 µM [falling, partial curve] | – |
| CCOc1ccc(Br)c(C2(O)CC(C)N(C)CC2C)c1 (stereo unspecified) | 32.6 µM [falling, single point] | – |
| CC1=CC(=Cc2sc3ccccc3[n+]2C)C=C(C)O1 | 3.55 µM [rising, partial curve, poor fit] | – |
| COc1ccc(C(=O)CC2C(=O)N(C)C(=O)N(C)C2=O)cc1 | 18.4 µM [falling, single point] | 25.9 µM [rising, partial curve, poor fit] |
| CC(=O)c1cccc(NC(=S)NCc2ccco2)c1 | 6.31 µM [rising, single point] | – |
| CS(=O)(=O)N1CCN(C(=N)N[N+](=O)[O-])CC1 | 10 µM [falling, partial curve, poor fit] | – |
| COc1ccc(C)cc1NC(=O)c1c(C)nn(Cc2ccccc2)c1Cl | 13 µM [falling, partial curve] | – |
| CCOC(=O)N1C(=O)[C@](c2ccc(Cl)cc2)(C(C)C)N1C(=O)OCC | 12.6 µM [falling, partial curve] | – |
| COC(=O)C1=C(c2ccccc2OCc2ccccc2)C[C@@H]2CC[C@H]1N2C(=O)NCc1ccc(F)cc1 | 18.4 µM [falling, single point] | – |
| CN1C(=O)CN=C(c2ccc(Cl)cc2)c2cc(Cl)ccc21 | 7.94 µM [falling, partial curve] | 18.4 µM [falling, partial curve] |
| COC(=O)C1=C(c2ccccc2OCc2ccccc2)C[C@@H]2CC[C@H]1N2C(=O)NCc1cccc(F)c1 | 11.6 µM [falling, partial curve] | – |
| OC(COCc1ccc(Cl)cc1)CN1CC=C(c2ccccc2)CC1 (stereo unspecified) | 35.5 µM [falling, single point] | – |
| CCOc1ccc(-n2c(/C=C/c3ccccc3)nc3ccccc3c2=O)cc1 | 0.112 µM [falling, full curve, poor fit] | – |
| O=C(NCCCN1CCCC1)c1ccc2c(Cl)c3c(nc2c1)CCCC3 | 10 µM [falling, partial curve, poor fit] | – |
| Cc1nc2ccccc2c(=O)n1-c1cc([N+](=O)[O-])cc([N+](=O)[O-])c1 | 14.1 µM [rising, single point] | – |
| COc1cc2nc(Nc3ccc(F)cc3)nc(N)c2cc1OC | 10 µM [falling, partial curve, poor fit] | – |
| Cc1ccc(-n2c(O)c(C=Nc3ccc(S(N)(=O)=O)cc3)c(=O)[nH]c2=O)cc1 | 35.5 µM [falling, single point] | – |
| O=C(Nc1cccnc1)c1cc(-c2cccc(Br)c2)nc2ccccc12 | 35.5 µM [falling, single point] | – |
| COc1ccc(NC(=O)c2cn(CCC#N)nc2-c2ccc(OC)c(OC)c2)cc1 | 2.24 µM [rising, full curve, poor fit] | – |
| CCCCCSc1cc(O)c(C(CNC)C(C)C)cc1OC (stereo unspecified) | 18.4 µM [falling, single point] | – |

| SMILES | AC50 [1] | AC50 [2] |
| --- | --- | --- |
| Cc1ccc(-c2nc3ccccc3c(=O)n2-c2cc(C)ccn2)cc1 | 3.55 µM [falling, single point] | – |
| CSc1ccc(C(c2c(O)c3ccccc3oc2=O)c2c(C)n(C)n(-c3ccccc3)c2=O)cc1 (stereo unspecified) | 35.5 µM [falling, partial curve, poor fit] | – |
| COc1cc(/C=N/n2cnnc2)ccc1OC(=O)N(C)C | 1.46 µM [rising, full curve, poor fit] | – |
| O=P(Nc1ccccc1)(Nc1ccccc1)Oc1ccccc1 | 2.31 µM [rising, full curve] | – |
| Cc1cccc(-c2nc3ccccc3c(=O)n2-n2cccc2)c1 | 4.11 µM [rising, single point] | – |
| C[C@]12CCC3C(CC[C@H]4C[C@@H](O)CC[C@]34C)C1[C@H]1CN=N[C@H]1[C@@H]2O (stereo partly specified) | 18.4 µM [rising, single point] | – |
| CC(Cc1ccccc1)NC(=O)Cc1ccc(N(C)C)cc1 (stereo unspecified) | 13 µM [rising, partial curve] | – |
| CCN(CC)c1c([N+](=O)[O-])c(=O)n(C)c2ccccc12 | 35.5 µM [falling, single point] | – |
| CC(=O)NCC(=O)Nc1ccc(Br)cc1C(=O)c1ccccc1 | 35.5 µM [rising, single point] | – |
| Cn1cccc1/C=C1\C(=O)NC(=O)N(Cc2ccco2)C1=O | 35.5 µM [rising, single point] | – |
| CCCOc1ccc(C(=O)NCCc2ccccc2)cc1 | 35.5 µM [falling, single point] | – |
| CC(C)(O)[C@H]1O[C@H]2CC[C@@]3(C)[C@@](O)(CC[C@H]4Cc5c([nH]c6ccccc56)[C@@]43C)C2=CC1=O | 35.5 µM [falling, single point] | – |
| FC(F)Oc1ccccc1/C=N/n1cnc2ccccc21 | 3.16 µM [rising, full curve, poor fit] | – |
| Cc1c(-c2cccc(Cl)c2)nc2ccccc2c1C(=O)N1CCC2(CC1)OCCO2 | 14.1 µM [rising, partial curve, poor fit] | – |
| CC(=O)N1N=C(c2cccnc2)CC1c1ccccc1O (stereo unspecified) | 35.5 µM [rising, single point] | – |
| COc1ccc(-c2nn(CCC#N)cc2C(=O)NCc2ccccc2)cc1 | 0.316 µM [rising, full curve, poor fit] | – |
| N#C/C(=C\c1ccc([N+](=O)[O-])o1)C(=O)Nc1ccc(F)cc1 | 11.2 µM [falling, partial curve, poor fit] | – |
| Cn1c(O)c(C(=Nc2ccccc2)SCc2ccccc2Cl)c(=O)n(C)c1=O | 2.51 µM [falling, full curve] | – |
| O=C1NC(=S)NC(=O)C1C/C=C/c1ccccc1 | 4.11 µM [falling, full curve, poor fit] | – |
| COc1ccc(OCCOc2cccc(C=C3C(=O)NC(=O)NC3=O)c2)cc1 | 5.01 µM [falling, partial curve] | – |

Entries of single compounds, quoted from the list:
`CC(C)(C)NC(=O)COC(=O)CCC(=O)c1ccc(F)cc1` is listed with AC50 [1]: 20 µM [rising, partial curve, poor fit]
`CC1=CC(=Cc2sc3ccccc3[n+]2C)C=C(C)O1` is listed with AC50 [1]: 3.55 µM [rising, partial curve, poor fit]
